# Measured values reported in the supplement of paper PMC6411743.
# By UniProt entry, the sequences of proteins in these tests, tags left out. Where a name states a change or a piece, a line headed by the entry shows the natural chain unless it says otherwise.
# UniProt P15170, whole entry: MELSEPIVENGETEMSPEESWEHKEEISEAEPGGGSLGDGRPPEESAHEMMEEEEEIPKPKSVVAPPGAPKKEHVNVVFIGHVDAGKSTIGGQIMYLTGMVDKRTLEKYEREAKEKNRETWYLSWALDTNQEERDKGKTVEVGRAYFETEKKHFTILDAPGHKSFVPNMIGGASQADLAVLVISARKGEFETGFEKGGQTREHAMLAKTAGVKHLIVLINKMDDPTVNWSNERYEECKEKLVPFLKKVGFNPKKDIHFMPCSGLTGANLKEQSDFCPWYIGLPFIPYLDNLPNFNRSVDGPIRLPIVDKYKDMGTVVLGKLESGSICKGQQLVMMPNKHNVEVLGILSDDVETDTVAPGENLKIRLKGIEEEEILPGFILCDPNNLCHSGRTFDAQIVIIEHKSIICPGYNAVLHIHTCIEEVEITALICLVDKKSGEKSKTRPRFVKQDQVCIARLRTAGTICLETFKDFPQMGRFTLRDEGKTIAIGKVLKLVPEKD
# UniProt P05106: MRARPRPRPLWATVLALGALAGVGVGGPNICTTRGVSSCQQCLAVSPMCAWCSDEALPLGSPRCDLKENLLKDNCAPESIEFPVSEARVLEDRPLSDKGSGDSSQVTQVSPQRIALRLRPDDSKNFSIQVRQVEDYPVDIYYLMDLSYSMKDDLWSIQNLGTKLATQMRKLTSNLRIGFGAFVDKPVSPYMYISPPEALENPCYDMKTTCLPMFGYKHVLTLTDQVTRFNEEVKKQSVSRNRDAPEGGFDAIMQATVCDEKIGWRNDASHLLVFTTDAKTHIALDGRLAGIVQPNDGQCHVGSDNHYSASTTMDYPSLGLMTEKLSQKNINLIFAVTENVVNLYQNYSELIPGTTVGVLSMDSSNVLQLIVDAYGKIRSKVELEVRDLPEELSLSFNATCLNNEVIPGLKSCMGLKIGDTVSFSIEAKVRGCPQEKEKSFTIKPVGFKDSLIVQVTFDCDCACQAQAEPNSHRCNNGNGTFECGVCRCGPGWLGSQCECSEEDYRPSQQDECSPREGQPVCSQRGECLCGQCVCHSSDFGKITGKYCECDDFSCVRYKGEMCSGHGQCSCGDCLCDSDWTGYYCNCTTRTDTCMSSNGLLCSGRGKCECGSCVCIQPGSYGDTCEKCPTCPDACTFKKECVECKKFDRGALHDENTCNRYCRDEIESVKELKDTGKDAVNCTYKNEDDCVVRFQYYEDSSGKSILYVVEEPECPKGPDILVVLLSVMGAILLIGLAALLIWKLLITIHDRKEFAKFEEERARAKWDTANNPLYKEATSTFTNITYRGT
# UniProt O95865: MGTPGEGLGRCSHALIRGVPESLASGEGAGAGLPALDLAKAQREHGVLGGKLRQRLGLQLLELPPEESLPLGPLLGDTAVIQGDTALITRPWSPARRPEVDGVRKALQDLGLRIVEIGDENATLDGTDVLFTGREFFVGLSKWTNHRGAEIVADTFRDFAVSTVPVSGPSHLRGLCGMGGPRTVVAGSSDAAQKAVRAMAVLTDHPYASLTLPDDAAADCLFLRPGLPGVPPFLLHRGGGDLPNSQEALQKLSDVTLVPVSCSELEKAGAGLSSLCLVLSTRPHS
# UniProt P00519, whole entry: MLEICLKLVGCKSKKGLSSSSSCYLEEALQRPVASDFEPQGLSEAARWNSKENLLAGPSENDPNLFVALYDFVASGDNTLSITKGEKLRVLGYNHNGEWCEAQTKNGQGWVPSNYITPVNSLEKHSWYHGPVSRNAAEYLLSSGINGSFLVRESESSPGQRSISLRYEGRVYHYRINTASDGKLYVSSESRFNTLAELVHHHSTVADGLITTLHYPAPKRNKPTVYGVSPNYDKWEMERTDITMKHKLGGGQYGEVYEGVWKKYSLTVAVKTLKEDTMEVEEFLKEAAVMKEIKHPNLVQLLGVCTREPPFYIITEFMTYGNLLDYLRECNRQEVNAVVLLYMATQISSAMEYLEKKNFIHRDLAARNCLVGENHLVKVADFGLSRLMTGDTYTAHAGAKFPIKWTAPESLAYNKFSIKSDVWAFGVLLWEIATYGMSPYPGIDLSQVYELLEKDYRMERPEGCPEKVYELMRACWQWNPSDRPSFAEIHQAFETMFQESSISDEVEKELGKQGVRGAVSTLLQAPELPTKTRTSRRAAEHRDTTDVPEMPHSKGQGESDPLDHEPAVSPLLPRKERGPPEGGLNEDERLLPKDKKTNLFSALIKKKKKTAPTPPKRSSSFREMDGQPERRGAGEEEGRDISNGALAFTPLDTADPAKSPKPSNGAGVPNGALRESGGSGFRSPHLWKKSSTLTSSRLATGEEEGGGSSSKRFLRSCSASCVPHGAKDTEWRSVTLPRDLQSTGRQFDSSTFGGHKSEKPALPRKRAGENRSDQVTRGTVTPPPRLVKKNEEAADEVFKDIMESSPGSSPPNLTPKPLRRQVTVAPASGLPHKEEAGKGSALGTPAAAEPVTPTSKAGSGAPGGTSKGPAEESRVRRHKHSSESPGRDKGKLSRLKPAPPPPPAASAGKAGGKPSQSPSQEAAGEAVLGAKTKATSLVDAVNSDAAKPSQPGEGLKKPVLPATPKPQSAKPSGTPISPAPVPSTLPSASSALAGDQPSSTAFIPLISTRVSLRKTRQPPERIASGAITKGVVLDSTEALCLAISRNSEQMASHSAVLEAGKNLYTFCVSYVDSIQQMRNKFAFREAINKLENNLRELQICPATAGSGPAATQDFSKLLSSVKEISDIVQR
# UniProt P12235: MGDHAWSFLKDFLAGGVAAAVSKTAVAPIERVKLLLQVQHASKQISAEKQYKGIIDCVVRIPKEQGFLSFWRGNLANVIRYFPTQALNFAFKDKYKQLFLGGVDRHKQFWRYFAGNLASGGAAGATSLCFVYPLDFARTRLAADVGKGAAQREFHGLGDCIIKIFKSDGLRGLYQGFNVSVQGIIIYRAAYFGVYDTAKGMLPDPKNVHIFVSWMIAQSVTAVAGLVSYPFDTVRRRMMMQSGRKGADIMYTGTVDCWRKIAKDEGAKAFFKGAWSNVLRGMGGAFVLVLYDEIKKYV
# UniProt P09417: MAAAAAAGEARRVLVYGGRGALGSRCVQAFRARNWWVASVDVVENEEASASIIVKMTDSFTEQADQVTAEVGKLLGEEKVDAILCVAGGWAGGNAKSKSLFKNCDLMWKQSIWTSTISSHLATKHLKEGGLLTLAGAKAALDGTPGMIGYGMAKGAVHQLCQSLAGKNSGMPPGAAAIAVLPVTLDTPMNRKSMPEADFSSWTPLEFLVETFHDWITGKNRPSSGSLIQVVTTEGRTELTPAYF
# UniProt P13984, whole entry: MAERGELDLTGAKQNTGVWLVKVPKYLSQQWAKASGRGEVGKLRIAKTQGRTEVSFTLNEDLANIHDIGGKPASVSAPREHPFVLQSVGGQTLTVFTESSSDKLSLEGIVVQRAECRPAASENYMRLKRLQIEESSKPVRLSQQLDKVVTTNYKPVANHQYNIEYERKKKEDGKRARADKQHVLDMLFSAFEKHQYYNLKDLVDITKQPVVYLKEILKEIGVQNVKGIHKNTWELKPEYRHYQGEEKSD
# UniProt P04053: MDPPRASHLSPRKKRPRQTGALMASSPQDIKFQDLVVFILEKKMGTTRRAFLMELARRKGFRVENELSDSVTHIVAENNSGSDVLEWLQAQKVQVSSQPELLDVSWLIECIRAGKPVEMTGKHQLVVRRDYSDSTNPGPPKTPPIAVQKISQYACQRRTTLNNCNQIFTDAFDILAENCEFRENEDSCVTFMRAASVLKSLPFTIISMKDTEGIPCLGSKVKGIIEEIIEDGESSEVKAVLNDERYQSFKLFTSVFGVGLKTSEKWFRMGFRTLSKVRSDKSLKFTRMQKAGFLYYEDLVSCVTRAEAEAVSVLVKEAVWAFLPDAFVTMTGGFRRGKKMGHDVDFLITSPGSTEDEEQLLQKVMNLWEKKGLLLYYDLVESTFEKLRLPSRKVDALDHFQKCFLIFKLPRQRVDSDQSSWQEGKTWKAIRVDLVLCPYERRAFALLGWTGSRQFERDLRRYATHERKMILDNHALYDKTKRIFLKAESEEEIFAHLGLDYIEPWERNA
# UniProt P07741: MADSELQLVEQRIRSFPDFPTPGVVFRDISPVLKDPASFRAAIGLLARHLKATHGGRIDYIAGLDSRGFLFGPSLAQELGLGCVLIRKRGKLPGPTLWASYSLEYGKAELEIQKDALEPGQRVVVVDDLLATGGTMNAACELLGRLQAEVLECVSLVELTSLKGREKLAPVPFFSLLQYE
# UniProt P12236: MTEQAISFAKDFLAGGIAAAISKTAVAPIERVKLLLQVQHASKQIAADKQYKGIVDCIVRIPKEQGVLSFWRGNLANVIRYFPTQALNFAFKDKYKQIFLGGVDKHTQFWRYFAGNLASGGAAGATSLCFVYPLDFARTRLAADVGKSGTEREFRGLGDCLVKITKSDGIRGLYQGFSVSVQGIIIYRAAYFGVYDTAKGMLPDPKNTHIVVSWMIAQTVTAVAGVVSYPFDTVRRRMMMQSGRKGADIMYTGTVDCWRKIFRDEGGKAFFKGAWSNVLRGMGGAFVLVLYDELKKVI
# UniProt O95817, whole entry: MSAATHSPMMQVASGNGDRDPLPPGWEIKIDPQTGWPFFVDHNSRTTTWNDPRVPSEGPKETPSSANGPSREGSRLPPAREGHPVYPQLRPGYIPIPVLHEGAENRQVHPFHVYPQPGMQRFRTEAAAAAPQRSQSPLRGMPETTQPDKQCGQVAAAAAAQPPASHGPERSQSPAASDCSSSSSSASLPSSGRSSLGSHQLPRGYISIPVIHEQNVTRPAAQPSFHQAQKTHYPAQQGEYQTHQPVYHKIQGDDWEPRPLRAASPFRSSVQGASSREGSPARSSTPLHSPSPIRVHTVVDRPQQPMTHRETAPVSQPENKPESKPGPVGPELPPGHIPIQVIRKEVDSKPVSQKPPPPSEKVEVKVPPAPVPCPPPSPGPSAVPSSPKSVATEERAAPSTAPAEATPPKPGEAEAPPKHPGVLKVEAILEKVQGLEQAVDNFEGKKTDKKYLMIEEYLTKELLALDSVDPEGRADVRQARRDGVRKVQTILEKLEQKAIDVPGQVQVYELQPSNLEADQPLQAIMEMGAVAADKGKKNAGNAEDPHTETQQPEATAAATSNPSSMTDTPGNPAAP
# UniProt P14317: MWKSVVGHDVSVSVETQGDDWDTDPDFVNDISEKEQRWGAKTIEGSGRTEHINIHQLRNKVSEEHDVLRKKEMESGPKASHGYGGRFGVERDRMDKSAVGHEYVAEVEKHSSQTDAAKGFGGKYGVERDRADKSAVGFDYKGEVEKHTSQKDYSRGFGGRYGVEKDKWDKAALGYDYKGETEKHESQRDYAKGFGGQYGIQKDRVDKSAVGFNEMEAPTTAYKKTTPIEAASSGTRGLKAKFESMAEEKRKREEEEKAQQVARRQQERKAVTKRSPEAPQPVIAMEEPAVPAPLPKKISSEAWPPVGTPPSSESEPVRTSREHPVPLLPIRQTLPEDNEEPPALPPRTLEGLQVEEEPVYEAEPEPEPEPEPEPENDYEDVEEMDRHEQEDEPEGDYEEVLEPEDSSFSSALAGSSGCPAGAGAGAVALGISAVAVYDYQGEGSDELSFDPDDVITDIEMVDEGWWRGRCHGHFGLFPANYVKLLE
# UniProt O95926: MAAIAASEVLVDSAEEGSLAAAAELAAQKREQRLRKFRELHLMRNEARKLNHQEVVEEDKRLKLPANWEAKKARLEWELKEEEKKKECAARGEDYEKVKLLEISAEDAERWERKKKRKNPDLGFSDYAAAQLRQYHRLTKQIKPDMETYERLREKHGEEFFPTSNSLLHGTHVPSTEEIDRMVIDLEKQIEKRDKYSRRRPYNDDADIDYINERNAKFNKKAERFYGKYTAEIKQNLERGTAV
# UniProt P11802: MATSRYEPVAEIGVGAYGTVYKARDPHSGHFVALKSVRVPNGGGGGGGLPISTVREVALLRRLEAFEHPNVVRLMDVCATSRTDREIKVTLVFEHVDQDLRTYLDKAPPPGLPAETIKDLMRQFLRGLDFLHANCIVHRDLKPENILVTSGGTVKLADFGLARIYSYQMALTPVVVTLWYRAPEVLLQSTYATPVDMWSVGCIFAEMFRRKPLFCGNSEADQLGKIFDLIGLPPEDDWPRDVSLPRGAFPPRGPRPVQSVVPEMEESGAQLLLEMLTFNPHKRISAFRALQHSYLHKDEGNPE
# UniProt P02795: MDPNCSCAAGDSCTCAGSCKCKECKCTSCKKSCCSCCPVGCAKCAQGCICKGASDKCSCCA
# UniProt P09104, whole entry: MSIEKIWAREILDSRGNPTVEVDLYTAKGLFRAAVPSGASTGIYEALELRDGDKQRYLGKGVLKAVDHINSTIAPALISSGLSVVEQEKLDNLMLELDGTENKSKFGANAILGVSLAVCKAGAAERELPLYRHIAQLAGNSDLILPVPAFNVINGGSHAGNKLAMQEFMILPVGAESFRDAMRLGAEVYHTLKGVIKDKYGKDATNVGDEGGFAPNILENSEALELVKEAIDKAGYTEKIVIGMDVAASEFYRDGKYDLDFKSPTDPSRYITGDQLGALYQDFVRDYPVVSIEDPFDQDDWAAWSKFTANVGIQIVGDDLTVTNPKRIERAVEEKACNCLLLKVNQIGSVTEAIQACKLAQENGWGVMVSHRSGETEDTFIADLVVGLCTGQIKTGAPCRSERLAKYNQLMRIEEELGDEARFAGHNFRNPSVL
# ± gives the standard deviation of the averaged measurements. This is a selection; strong and weak results do not stand in their true shares. Most entries show no effect beyond the scatter of the controls.
# Compound: Nc1ncnc2c1ncn2[C@@H]1O[C@H](COP(=O)(O)OP(=O)(O)OP(=O)(O)O)[C@@H](O)[C@H]1O [adenosine triphosphate]
# Test: NP40-soluble protein abundance relative to vehicle (solubility fold change) (ratio); higher = more soluble protein in presence of ATP
# How it was run: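 Data come from three independent experiments in which Dounce-homogenised Jurkat crude lysate was treated at eight concentrations from 0.1 to 10 mM. Treatment ran 10 min at room temperature and then 3 min at 37 °C, after which 0.8% NP40 and benzonase were added for 60 min at 4 °C before ultracentrifugation. The supernatant underwent TMT labelling and LC-MS/MS, and vsn-normalised intensities were expressed as fold change against the detergent-processed vehicle in each replicate.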
Target,NP40-soluble protein abundance (concentration: 0.1mM),NP40-soluble protein abundance (concentration: 0.5mM)
NUDT3 (UniProt O95989),1.02 ± 0.082,1.04 ± 0.055
MTHFD1 (UniProt P11586),1.04 ± 0.053,1.05 ± 0.062
UniProt P15170-2|P15170-3,1.02 ± 0.043,1.03 ± 0.048
RPS2 (UniProt P15880),0.913 ± 0.073,0.911 ± 0.099
UniProt P06756 and related entries,0.987 ± 0.053,0.969 ± 0.091
UniProt P01116-2|P01116,0.979 ± 0.062,0.973 ± 0.059
VIM (UniProt P08670),0.972 ± 0.035,0.987 ± 0.033
UniProt P05106,0.989 ± 0.079,0.945 ± 0.019
DDAH2 (UniProt O95865),0.996 ± 0.026,0.982 ± 0.034
ISG15 (UniProt P05161),1.02 ± 0.048,1.01 ± 0.051
CTSG (UniProt P08311),0.929 ± 0.086,0.924 ± 0.11
H2AFX (UniProt P16104),0.845 ± 0.15,0.82 ± 0.22
UniProt P00519-2|P00519,1.03 ± 0.043,1.04 ± 0.052
SLC25A4 (UniProt P12235),0.955 ± 0.059,0.9532 ± 0.0058
P00395 and related entries (UniProt Q8IVS2),1.04 ± 0.096,1.01 ± 0.05
ITGB1 (UniProt P05556),0.9434 ± 0.0085,0.914 ± 0.021
UQCRB (UniProt P14927),0.94 ± 0.058,0.93 ± 0.062
UniProt P06213 and related entries,0.973 ± 0.02,0.971 ± 0.025
DBI (UniProt P07108),0.916 ± 0.096,0.92 ± 0.074
QDPR (UniProt P09417),1.03 ± 0.046,1 ± 0.033
NRAS (UniProt P01111),1.07 ± 0.031,1.02 ± 0.05

Target,NP40-soluble protein abundance (concentration: 0.1mM),NP40-soluble protein abundance (concentration: 0.5mM)
ALAD (UniProt P13716),1 ± 0.033,1.03 ± 0.031
GTF2F2 (UniProt P13984),0.998 ± 0.025,1.04 ± 0.05
DLAT (UniProt P10515),1.03 ± 0.17,1.19 ± 0.31
SOD1 (UniProt P00441),0.912 ± 0.033,0.879 ± 0.077
SLC25A5 (UniProt P05141),0.947 ± 0.021,0.97 ± 0.025
ADA (UniProt P00813),1.06 ± 0.15,0.881 ± 0.17
UniProt P11413 and related entries,1.04 ± 0.12,1.04 ± 0.07
UniProt P04053 and related entries,1.05 ± 0.031,1.049 ± 0.0091
SNRPA1 (UniProt P09661),0.92 ± 0.071,0.899 ± 0.063
ENO1 (UniProt P06733),0.94 ± 0.04,1.1 ± 0.17
ANXA3 (UniProt P12429),1.02 ± 0.017,0.983 ± 0.016
ACYP1 (UniProt P07311),0.955 ± 0.029,0.929 ± 0.053
IFNGR1 (UniProt P15260),0.94 ± 0.035,0.945 ± 0.026
UniProt P04083 and related entries,0.924 ± 0.048,0.903 ± 0.057
UniProt P13807 and related entries,1.02 ± 0.22,0.974 ± 0.17
UniProt P01737,0.952 ± 0.051,0.925 ± 0.082
UQCRH (UniProt P07919),1 ± 0.086,0.976 ± 0.11
APRT (UniProt P07741),0.881 ± 0.026,0.843 ± 0.13
UniProt P09914 and related entries,0.961 ± 0.076,1.02 ± 0.092
SLC25A6 (UniProt P12236),0.918 ± 0.033,0.932 ± 0.036
PAK4 (UniProt O96013),1.02 ± 0.024,1.06 ± 0.07

Target,NP40-soluble protein abundance (concentration: 0.1mM),NP40-soluble protein abundance (concentration: 0.5mM)
UniProt P06729,0.921 ± 0.011,0.943 ± 0.019
UniProt O95822 and related entries,1.05 ± 0.084,1.02 ± 0.024
UniProt P00338-3|P00338-2,1.06 ± 0.35,0.92 ± 0.17
CAT (UniProt P04040),1.02 ± 0.046,1.02 ± 0.057
UniProt P14735 and related entries,1.06 ± 0.088,1.04 ± 0.081
BAG3 (UniProt O95817),1 ± 0.12,0.91 ± 0.25
UniProt P06454-2|B8ZZQ6 and related entries,0.966 ± 0.061,1 ± 0.067
UniProt P09497-2,0.929 ± 0.076,0.931 ± 0.071
HCLS1 (UniProt P14317),0.975 ± 0.015,0.99 ± 0.053
IGLL1 (UniProt P15814),0.969 ± 0.03,0.936 ± 0.047
SYF2 (UniProt O95926),0.712 ± 0.084,0.671 ± 0.071
UniProt P11310 and related entries,1.01 ± 0.036,1.02 ± 0.059
SP1 (UniProt P08047),0.95 ± 0.068,0.956 ± 0.021
UniProt P07954-2,0.991 ± 0.03,0.992 ± 0.047
HARS (UniProt P12081),1.01 ± 0.039,1.01 ± 0.054
UniProt P11802 and related entries,1 ± 0.12,1.03 ± 0.027
SRF (UniProt P11831),0.962 ± 0.057,0.976 ± 0.037
UniProt P00387 and related entries,1.04 ± 0.07,0.997 ± 0.032
UniProt P11498 and related entries,1.07 ± 0.048,1.04 ± 0.031
UniProt P04035 and related entries,1.03 ± 0.082,1.03 ± 0.048
EEF2 (UniProt P13639),0.995 ± 0.087,0.999 ± 0.06

Target,NP40-soluble protein abundance (concentration: 0.1mM),NP40-soluble protein abundance (concentration: 0.5mM)
TK1 (UniProt P04183),1.04 ± 0.022,1.07 ± 0.059
CSTB (UniProt P04080),0.939 ± 0.066,0.916 ± 0.074
ACADS (UniProt P16219),1.06 ± 0.098,1.06 ± 0.071
UniProt P05026 and related entries,0.963 ± 0.028,0.946 ± 0.18
RPN1 (UniProt P04843),1.02 ± 0.038,1.04 ± 0.065
UniProt P09651 and related entries,0.987 ± 0.072,1.07 ± 0.063
UniProt P01733,1.06 ± 0.039,0.964 ± 0.073
SLC2A3 (UniProt P11169),1.08 ± 0.022,1.01 ± 0.029
PEPD (UniProt P12955),1.06 ± 0.088,1.04 ± 0.076
UniProt P04234,0.944 ± 0.068,0.895 ± 0.082
RALA (UniProt P11233),1.039 ± 0.0094,1.07 ± 0.087
HMGB1 (UniProt P09429),0.902 ± 0.12,0.875 ± 0.15
CKB (UniProt P12277),0.922 ± 0.12,0.921 ± 0.054
MT2A (UniProt P02795),0.923 ± 0.025,0.918 ± 0.039
TXNDC12 (UniProt O95881),0.959 ± 0.029,0.986 ± 0.053
UniProt P15812 and related entries,0.894 ± 0.056,0.924 ± 0.2
ENO2 (UniProt P09104),1.05 ± 0.074,1.04 ± 0.094
UniProt P11940 and related entries,0.996 ± 0.1,1.05 ± 0.084
